Primary screen of a compound library

The chains behind the UniProt entries cited, without tags or fusion partners. Residues count along the entry.
UniProt Q4DA54, 1-478: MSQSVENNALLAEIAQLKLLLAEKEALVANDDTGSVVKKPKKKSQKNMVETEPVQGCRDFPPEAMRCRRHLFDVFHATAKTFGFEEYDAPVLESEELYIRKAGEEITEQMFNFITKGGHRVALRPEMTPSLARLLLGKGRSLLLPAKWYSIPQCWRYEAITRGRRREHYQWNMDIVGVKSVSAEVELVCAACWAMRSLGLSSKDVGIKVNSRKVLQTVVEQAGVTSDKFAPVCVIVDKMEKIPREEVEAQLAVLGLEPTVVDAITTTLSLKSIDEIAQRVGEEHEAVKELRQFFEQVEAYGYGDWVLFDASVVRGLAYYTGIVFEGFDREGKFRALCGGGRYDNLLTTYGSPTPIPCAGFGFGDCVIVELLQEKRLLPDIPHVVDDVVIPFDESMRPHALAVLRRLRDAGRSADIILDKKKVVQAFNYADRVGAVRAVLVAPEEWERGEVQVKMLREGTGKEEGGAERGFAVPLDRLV
UniProt A4I591, 1-473: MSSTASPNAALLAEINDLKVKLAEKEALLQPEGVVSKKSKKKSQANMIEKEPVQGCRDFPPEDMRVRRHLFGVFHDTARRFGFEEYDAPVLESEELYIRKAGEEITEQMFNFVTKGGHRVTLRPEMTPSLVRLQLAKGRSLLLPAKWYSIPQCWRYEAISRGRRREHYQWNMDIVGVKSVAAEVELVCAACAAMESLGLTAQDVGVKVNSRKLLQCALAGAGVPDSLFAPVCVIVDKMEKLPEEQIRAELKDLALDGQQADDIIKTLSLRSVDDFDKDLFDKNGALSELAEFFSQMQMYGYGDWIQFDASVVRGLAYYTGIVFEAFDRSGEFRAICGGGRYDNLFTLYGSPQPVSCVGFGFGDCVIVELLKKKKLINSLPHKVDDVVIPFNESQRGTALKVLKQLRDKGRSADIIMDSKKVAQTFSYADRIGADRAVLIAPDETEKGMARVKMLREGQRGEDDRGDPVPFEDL

The values are deposited in ChEMBL (CHEMBL3988442, “University of Dundee, Small-Polar-MMV Screening Library” (2021)).

Toxoplasma: 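Assay of Toxoplasma gondii numbers, read through their beta-galactosidase reporter with a colour substrate. Concentration: 10 µM. Higher reads as fewer parasites (inferred from which compounds were picked for retests). Of about 67,000 compounds tested this way, about 260 (0.38%) reached 50% or more in at least one test.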
TcHisRS: 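Histidine-tRNA ligase, Trypanosoma cruzi CL Brener (UniProt Q4DA54). Enzyme assay of histidyl-tRNA synthetase; the read-out is not stated. Tested at 30 µM. The record gives no direction; compounds that gave an IC50 in retests scored well above the rest, so higher reads as stronger inhibition. Of about 69,000 compounds tested this way, about 31 (0.045%) reached 50% or more in at least one test.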
LiHisRS: 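Histidine-tRNA ligase, Leishmania infantum (UniProt A4I591). Enzyme assay of histidyl-tRNA synthetase; the read-out is not stated. Concentration: 30 µM. The record gives no direction; compounds that gave an IC50 in retests scored well above the rest, so higher reads as stronger inhibition. The assay is labelled LdHisRS but filed under L. infantum. Of about 69,000 compounds tested this way, about 410 (0.6%) reached 50% or more in at least one test.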
T. brucei: 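Whole-parasite assay of Trypanosoma brucei over 72 hours; the read-out is not stated. Concentration: 30 µM. Higher reads as stronger inhibition (inferred: compounds with an IC50 in retests scored well above the rest). Values scatter widely below zero; nearly all retest evidence comes from the higher of the two concentrations used. Size under these conditions: about 64,000 compounds, about 940 of them at 50% or above in at least one test.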

Results are given as percent effect. The record does not define 0% and 100%; most values in the screen are far below 50% and negative numbers occur (in some assays of this library far below -100). This is an unselected part of the compounds tested.

Cn1cc(CNC2CCc3c(ccc(=O)n3Cc3ccncc3)C2)cn1.O=C(O)C(F)(F)F.O=C(O)C(F)(F)F (centres unmarked) gave Toxoplasma: 0.9954%; T. brucei: 3.089%. For Cc1ccc(C(=O)N2CCC3(CCN(c4ccsc4)C3=O)C2)cn1 (centres unmarked) the result was TcHisRS: 3.279%; LiHisRS: 17.54%. Result for CN(C)S(=O)(=O)N1CCCC(c2cccc(Cc3ccc(Cl)cc3)n2)C1 (centres unmarked) was Toxoplasma: 17.32%; TcHisRS: 15.38%; LiHisRS: 18.84%; T. brucei: 99.29%. Result for O=C(CSc1nnc2n1N=CN(c1ccccc1)C2)c1ccccc1 was Toxoplasma: 0.5066%; TcHisRS: 5.155%; LiHisRS: 14.94%; T. brucei: -17.44%. COc1ccc(C[C@H]2CN(C(=O)c3cc(C)no3)CC[C@H]2OC)cc1 gave Toxoplasma: 3.291%; TcHisRS: 5.825%; LiHisRS: 11.54%; T. brucei: 22.29%.

For CC1CCN(c2ccc(NC(=O)CCn3cccn3)cc2)CC1 the result was Toxoplasma: 20.89%; TcHisRS: 5.941%; LiHisRS: 22.83%; T. brucei: 1.788%. With CC(C)(C)c1noc(CCC(=O)NCC2CCS(=O)(=O)C2)n1 (centres unmarked) the screen gave Toxoplasma: -13.97%; TcHisRS: 7.493%; LiHisRS: 8.929%; T. brucei: 9.599%. [H][C@]12CCN(C(=O)NC3CCCC3)CC[C@@]1([H])S(=O)(=O)N(CC(C)C)C2 read Toxoplasma: -17.16%; T. brucei: 4.162%. O=C(CS(=O)(=O)Cc1nnnn1C1CC1)NCCc1ccccc1 read Toxoplasma: -2.299%; TcHisRS: 6.897%; LiHisRS: 13.16%; T. brucei: 3.826%. Result for N#Cc1ccsc1C(=O)N1CCCN(Cc2cscn2)CC1 was Toxoplasma: -4.79%; TcHisRS: 6.122%; LiHisRS: 6.195%.

Result for CC1=N[C@@]2(CC[C@@H]3CN(Cc4ccccc4)C[C@@H]32)C(=O)N1CC1CC1 was TcHisRS: 11.06%; LiHisRS: 19.27%. With Cc1cnn(CCNCc2nnc(-c3occc3C)o2)c1 the screen gave Toxoplasma: 0.9683%; TcHisRS: 1.425%; LiHisRS: 17.09%. CCCOc1cccc(OCc2ccon2)c1 read Toxoplasma: -7.199%; TcHisRS: 0.8929%; LiHisRS: 5.31%; T. brucei: -44.88%. Result for CCOCC(=O)N1Cc2nccn2CC(CN2CCCC2)C1 (centres unmarked) was TcHisRS: 10.84%; LiHisRS: 20.59%. Result for OCc1cc2ccccc2nc1NCC1(O)CCC1 was Toxoplasma: -0.534%; TcHisRS: 6.358%; LiHisRS: 21.28%; T. brucei: -16.73%.

Cc1[nH]c2c(C)ccc(C)c2c1CC(=O)NCc1csc(N(C)C)n1 gave Toxoplasma: -2.19%; TcHisRS: 9.548%; LiHisRS: 20%; T. brucei: 40.13%. For CC(NC1CCN(CCS(C)(=O)=O)CC1)c1cnn(C(C)C)c1 (centres unmarked) the result was Toxoplasma: -7.768%; TcHisRS: -1.22%; LiHisRS: 10.84%; T. brucei: -47.26%. For CCC(NC(=O)c1ccoc1)c1ccccc1OCC(=O)N1CCCC1 (centres unmarked) the result was Toxoplasma: -20.74%; TcHisRS: 2.053%; LiHisRS: 4.63%; T. brucei: -4.853%. CNC(=O)[C@H]1C[C@@H]2CN(S(=O)(=O)c3ccc(C)cc3)C[C@@H]2N1C read TcHisRS: 8.824%; LiHisRS: 31.43%. Result for CC[C@@H](Cn1ncc2ccccc2c1=O)NC(=O)c1cnccn1 was Toxoplasma: 4.859%; TcHisRS: 1.55%; LiHisRS: 2.837%; T. brucei: 7.199%.

For N#Cc1ccccc1OCCN1CCCC(c2noc(C3CC3)n2)C1 (centres unmarked) the result was Toxoplasma: 15.34%; TcHisRS: -2.062%; LiHisRS: 11.29%; T. brucei: -33.62%. With O=c1c2ccccc2nc2n1C(CSc1ccc(Cl)cc1Cl)CN2 (centres unmarked) the screen gave Toxoplasma: 1.162%; TcHisRS: 7.519%; LiHisRS: 34.15%; T. brucei: 19.2%. O=C(O)C(F)(F)F.O=C([C@H]1CCCO1)N1CC[C@H](O)[C@@H]1Cc1ccncc1 read Toxoplasma: -3.659%; T. brucei: 32.76%. With Cc1cnn(CC2CCCCN2C(=O)c2cccc3c2OCO3)c1 (centres unmarked) the screen gave Toxoplasma: -2.432%; TcHisRS: 0.8403%; LiHisRS: 4.959%; T. brucei: 9.797%. CC(=O)N[C@@H]1CN(Cc2oc3ccccc3c2C)C[C@H]1c1ccc(C)o1 gave Toxoplasma: 0.1248%; TcHisRS: -10.64%; LiHisRS: 15.71%; T. brucei: -30.16%.

For CCCc1n[nH]c(C2CN(C(=O)CCc3cscn3)CCO2)n1 (centres unmarked) the result was Toxoplasma: -13.55%; TcHisRS: 4.118%; LiHisRS: 9.174%. CC(CNc1cncc(-n2cccn2)n1)N(C)c1ccccc1 (centres unmarked) gave Toxoplasma: -2.223%; TcHisRS: 0.7634%; LiHisRS: 5.479%; T. brucei: 9.923%. With CNC(=O)CC1CCN(C(=O)NCc2coc3ccccc23)CC1 the screen gave Toxoplasma: 7.887%; TcHisRS: 2.222%; LiHisRS: 14.53%; T. brucei: -7.353%.

The last 3 entries again:

- CCCc1n[nH]c(C2CN(C(=O)CCc3cscn3)CCO2)n1 (centres unmarked) : Toxoplasma: -13.55%; TcHisRS: 4.118%; LiHisRS: 9.174%
- CC(CNc1cncc(-n2cccn2)n1)N(C)c1ccccc1 (centres unmarked) : Toxoplasma: -2.223%; TcHisRS: 0.7634%; LiHisRS: 5.479%; T. brucei: 9.923%
- CNC(=O)CC1CCN(C(=O)NCc2coc3ccccc23)CC1 : Toxoplasma: 7.887%; TcHisRS: 2.222%; LiHisRS: 14.53%; T. brucei: -7.353%